From US20230135524A1, “ARYL HYDANTOIN HETEROCYCLES AND METHODS OF USE” (The United States of America,as represented by the …, priority 2020, published 2023)

What was measured:
Type in all cases: cell-based
22Rv1 = assay: IncuCyte % confluence cell growth inhibition, 22Rv1; conditions: Homo sapiens, AR-positive, AR mutation H874Y, % cell growth inhibition relative to DMSO
Experimental: (§1) Cells were grown in DMEM (Dulbecco's Modified Eagle Medium) with 10% FBS (fetal bovine serum) in 384 well plates for 1 day, then dosed with indicated concentrations of exemplary compounds, followed by imaging of all wells every 4 hours by […]™ ZOOM (Sartorius, Goettingen, Germany). Images were then analyzed to discern the % confluence of cells in each well. IC50 values were calculated from dose response curves of the % cell growth inhibition relative to DMSO control at the same time point per each cell line. The IC50 values (μM) for various AR-positive (LNCaP, LNCAPAR, LAPC4, 22Rv1, LNCaP ARin vivo, and LNCaP ARF876L) and AR-negative (PC3 and DU145) prostate cancer cell lines are shown in Table 2.

LAPC4 = assay: IncuCyte % confluence cell growth inhibition, LAPC4; conditions: Homo sapiens, AR-positive, AR w.t., % cell growth inhibition relative to DMSO
Experimental: as §1

DU145 = assay: IncuCyte % confluence cell growth inhibition, DU145; conditions: Homo sapiens, DU-145; AR-negative; % cell growth inhibition relative to DMSO
Experimental: as §1

LNCaP = assay: IncuCyte % confluence cell growth inhibition, LNCaP; conditions: Homo sapiens, AR-positive, AR mutation T877A, % cell growth inhibition relative to DMSO
Experimental: as §1

LNCAP AR = assay: IncuCyte % confluence cell growth inhibition, LNCAP AR; conditions: AR-positive, AR w.t., % cell growth inhibition relative to DMSO
Experimental: as §1

PC3 = assay: IncuCyte % confluence cell growth inhibition, PC3; conditions: Homo sapiens, PC-3; AR-negative; % cell growth inhibition relative to DMSO
Experimental: as §1

IC50 (22Rv1): 70.8 µM | IC50 (DU145): 86.3 µM | IC50 (LNCaP): 59 µM | IC50 (LNCAP AR): 53.5 µM | IC50 (PC3): 200 µM
Compound: CNC(=O)c1ccc(N2C(=S)N(c3ccc(C#N)c(C(F)(F)F)c3)C(=O)C2(C)C)cc1F [Enzalutamide, reference compound]
IC50 (LAPC4): 67.9 µM
